Measurements published in patent US20140024555A1 (LOS ALAMOS NATIONAL SECURITY, published 2014).
Results are given in words; binding and its absence hold for the method and conditions named. Some entries that bind do so weakly or less than the wild type. Sequences can lack the tags named with a protein.

Columns and labels:
[1] = target: T1, YheL subunit of the E. coli YheNML / YheML constructs, with C-terminal GFP S11 tag (Escherichia coli) (UniProt P45530); assay: mock library of YheNML and YheML colonies, Talon capture plate, identity of picks by PCR (FIG. 11); untagged YheM co-expressed
T1 sequence: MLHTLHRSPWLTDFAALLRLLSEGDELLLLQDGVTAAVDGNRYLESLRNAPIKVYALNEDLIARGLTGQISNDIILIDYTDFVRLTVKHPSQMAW

[2] = target: T1, YheL subunit of the E. coli YheNML / YheML constructs, with C-terminal GFP S11 tag (Escherichia coli); assay: mock library of YheNML and YheML colonies (1:25), Talon capture plate; compact spots picked and identified by PCR; untagged YheM co-expressed
[3] = target: T1, YheL subunit of the E. coli YheNML / YheML constructs, with C-terminal GFP S11 tag (Escherichia coli); assay: mock library of YheNML in 25-fold excess of YheML colonies, Talon capture plate (FIG. 2C); untagged YheM co-expressed
[4] = target: T1, YheL subunit of the E. coli YheNML / YheML constructs, with C-terminal GFP S11 tag (Escherichia coli); assay: colony filtration immobilized bead assay: 6-His subunit captured on Talon resin in agarose, co-captured GFP S11 subunit read by complemented GFP fluorescence; untagged YheM co-expressed
[5] = target: T1, YheL subunit of the E. coli YheNML / YheML constructs, with C-terminal GFP S11 tag (Escherichia coli); assay: colony filtration immobilized bead assay, capture plate with TNG buffer (FIG. 4B); untagged YheM co-expressed
[6] = target: T1, YheL subunit of the E. coli YheNML / YheML constructs, with C-terminal GFP S11 tag (Escherichia coli); assay: colony filtration immobilized bead assay, capture plates with TNG buffer (FIG. 4B); complex 1; untagged YheM co-expressed

Measured: binding

B1: YheN subunit of the E. coli YheNML complex, with N-terminal 6-His tag (protein)
chain: MRFAIVVTGPAYGTQQASSAFQFAQALIADGHELSSVFFYREGVYNANQLTSPASDEFDLVRAWQQLNAQHGVALNICVAAALRRGVVDETEAGRLGLASSNLQQGFTLSGLGALAEASLTCDRVVQF
binds: all assays above
